Reference: the supplement of paper PMC7661543
± gives the standard deviation of the averaged measurements. Differences between knockout arms are mostly noise.

Tested on: BT-20
Experiment: relative cell number vs DMSO control (72 h) (% of DMSO); higher = less growth inhibition (more cells)
Experimental: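 QMAP-Seq: a pool of 5 breast cancer cell lines (ZR-75-1, SKBR3, HCC-38, MDA-MB-231, BT-20), each carrying 12 doxycycline-inducible Cas9 sgRNA perturbations (11 knockouts plus non-targeting sgNT), was treated with compounds for 72 h at four 10-fold doses (10 nM-10 uM or 1 nM-1 uM range). Barcodes were amplified and sequenced, and cell number was interpolated from 293T spike-in standard curves. The result is expressed as % of the median of DMSO wells. Two biological replicates.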

CC(C)(C)OC(=O)CN(Cc1ccc(Cl)cc1)Cc1ccc([N+](=O)[O-])s1 [GSK4112]
Settings | relative cell number
sgRNA knockout: sgATF3, 10 nM | 85.2 ± 9.2
sgRNA knockout: sgATF3, 100 nM | 108.8 ± 0.68
sgRNA knockout: sgATF3, 1000 nM | 96.3 ± 3.4
sgRNA knockout: sgATF3, 10000 nM | 105 ± 22
sgRNA knockout: sgATF4, 10 nM | 83.2 ± 6.8
sgRNA knockout: sgATF4, 100 nM | 118 ± 16
sgRNA knockout: sgATF4, 1000 nM | 104 ± 24
sgRNA knockout: sgATF4, 10000 nM | 105 ± 6.7
sgRNA knockout: sgATF6, 10 nM | 88.2 ± 2.9
sgRNA knockout: sgATF6, 100 nM | 106 ± 5.8
sgRNA knockout: sgATF6, 1000 nM | 92.3 ± 14
sgRNA knockout: sgATF6, 10000 nM | 95.6 ± 27
sgRNA knockout: sgATG7, 10 nM | 82.2 ± 6.8
sgRNA knockout: sgATG7, 100 nM | 114 ± 13
sgRNA knockout: sgATG7, 1000 nM | 106.8 ± 0.031
sgRNA knockout: sgATG7, 10000 nM | 104 ± 15
sgRNA knockout: sgERN1, 10 nM | 84.2 ± 1.3
sgRNA knockout: sgERN1, 100 nM | 101 ± 14
sgRNA knockout: sgERN1, 1000 nM | 102 ± 3.9
sgRNA knockout: sgERN1, 10000 nM | 97.1 ± 20
sgRNA knockout: sgHSF1, 10 nM | 99.1 ± 2.5
sgRNA knockout: sgHSF1, 100 nM | 95.4 ± 5.4
sgRNA knockout: sgHSF1, 1000 nM | 93.39 ± 0.13
sgRNA knockout: sgHSF1, 10000 nM | 96.5 ± 13
sgRNA knockout: sgHSF2, 10 nM | 94.7 ± 2.3
sgRNA knockout: sgHSF2, 100 nM | 110 ± 10
sgRNA knockout: sgHSF2, 1000 nM | 98 ± 1.2
sgRNA knockout: sgHSF2, 10000 nM | 116 ± 11
sgRNA knockout: sgKEAP1, 10 nM | 84 ± 1.9
sgRNA knockout: sgKEAP1, 100 nM | 100 ± 6.2
sgRNA knockout: sgKEAP1, 1000 nM | 94.3 ± 8.3
sgRNA knockout: sgKEAP1, 10000 nM | 94.9 ± 17
sgRNA knockout: sgNFE2L2, 10 nM | 100 ± 1.6
sgRNA knockout: sgNFE2L2, 100 nM | 133 ± 18
sgRNA knockout: sgNFE2L2, 1000 nM | 90.3 ± 25
sgRNA knockout: sgNFE2L2, 10000 nM | 109 ± 32
sgRNA knockout: sgSLC35F2, 10 nM | 95.8 ± 9.2
sgRNA knockout: sgSLC35F2, 100 nM | 105 ± 7.3
sgRNA knockout: sgSLC35F2, 1000 nM | 91.5 ± 11
sgRNA knockout: sgSLC35F2, 10000 nM | 107 ± 38
sgRNA knockout: sgXBP1, 10 nM | 88.1 ± 6.4
sgRNA knockout: sgXBP1, 100 nM | 116 ± 5.8
sgRNA knockout: sgXBP1, 1000 nM | 88.8 ± 13
sgRNA knockout: sgXBP1, 10000 nM | 111 ± 30

COc1ccc(-c2ccc3c(N4CCOCC4)nc(N4C[C@@H](C)O[C@@H](C)C4)nc3n2)cc1CO
Settings | relative cell number
sgRNA knockout: sgATF3, 10 nM | 88.6 ± 10
sgRNA knockout: sgATF3, 100 nM | 123 ± 12
sgRNA knockout: sgATF3, 1000 nM | 98 ± 16
sgRNA knockout: sgATF3, 10000 nM | 52.3 ± 0.92
sgRNA knockout: sgATF4, 10 nM | 90.6 ± 2.8
sgRNA knockout: sgATF4, 100 nM | 115 ± 15
sgRNA knockout: sgATF4, 1000 nM | 89.3 ± 6.5
sgRNA knockout: sgATF4, 10000 nM | 43 ± 1.9
sgRNA knockout: sgATF6, 10 nM | 90.9 ± 20
sgRNA knockout: sgATF6, 100 nM | 106 ± 26
sgRNA knockout: sgATF6, 1000 nM | 81.6 ± 12
sgRNA knockout: sgATF6, 10000 nM | 43.9 ± 6.5
sgRNA knockout: sgATG7, 10 nM | 99.7 ± 5.7
sgRNA knockout: sgATG7, 100 nM | 105 ± 21
sgRNA knockout: sgATG7, 1000 nM | 94.6 ± 1.4
sgRNA knockout: sgATG7, 10000 nM | 46.6 ± 3.6
sgRNA knockout: sgERN1, 10 nM | 95.9 ± 7.7
sgRNA knockout: sgERN1, 100 nM | 100 ± 4.7
sgRNA knockout: sgERN1, 1000 nM | 84.2 ± 24
sgRNA knockout: sgERN1, 10000 nM | 45.3 ± 4
sgRNA knockout: sgHSF1, 10 nM | 97.5 ± 15
sgRNA knockout: sgHSF1, 100 nM | 107 ± 5.3
sgRNA knockout: sgHSF1, 1000 nM | 84.3 ± 9.5
sgRNA knockout: sgHSF1, 10000 nM | 48.5 ± 0.58
sgRNA knockout: sgHSF2, 10 nM | 102 ± 13
sgRNA knockout: sgHSF2, 100 nM | 96.6 ± 13
sgRNA knockout: sgHSF2, 1000 nM | 77.7 ± 11
sgRNA knockout: sgHSF2, 10000 nM | 43.3 ± 1.4
sgRNA knockout: sgKEAP1, 10 nM | 96 ± 24
sgRNA knockout: sgKEAP1, 100 nM | 99.8 ± 15
sgRNA knockout: sgKEAP1, 1000 nM | 82 ± 17
sgRNA knockout: sgKEAP1, 10000 nM | 50.1 ± 6
sgRNA knockout: sgNFE2L2, 10 nM | 89.7 ± 5.8
sgRNA knockout: sgNFE2L2, 100 nM | 96.9 ± 26
sgRNA knockout: sgNFE2L2, 1000 nM | 101 ± 16
sgRNA knockout: sgNFE2L2, 10000 nM | 54.4 ± 12
sgRNA knockout: sgSLC35F2, 10 nM | 94.9 ± 12
sgRNA knockout: sgSLC35F2, 100 nM | 121.3 ± 1
sgRNA knockout: sgSLC35F2, 1000 nM | 101 ± 22
sgRNA knockout: sgSLC35F2, 10000 nM | 45.4 ± 12
sgRNA knockout: sgXBP1, 10 nM | 92.9 ± 17
sgRNA knockout: sgXBP1, 100 nM | 115 ± 12
sgRNA knockout: sgXBP1, 1000 nM | 81.2 ± 19
sgRNA knockout: sgXBP1, 10000 nM | 48.5 ± 11
